# Results taken from patent US12037646B2, “Companion diagnostic biomarker for anti-HER2 therapy and use thereof” (INDUSTRY-UNIVERSITY COOPERATION FOUNDATION HANYANG …, priority 2019, dated 2024).
# At least one compound was matched to its structure with a doubt left.
# What was measured:
# HCC-1954 cells = assay: Orthotopic tumor xenograft, trastuzumab-resistant cells; assay type: in vivo, NOD/SCID mice; settings: dinaciclib monotherapy, 20 mg/kg intraperitoneally; orthotopic xenograft resistant to trastuzumab, 5 to 6 weeks
# [1] = test system: trastuzumab-resistant HCC-1954 cells; assay: SRB cell viability, trastuzumab-resistant cells; assay type: cell-based, human; settings: dinaciclib monotherapy, 5 nM or 10 nM; HER2+ breast cancer cells resistant to trastuzumab
# [2] = test system: triple-negative breast cancer (TNBC); settings: administration of dinaciclib in triple-negative breast cancer; cited from earlier work
smiles,measurement,setting,value
CCc1cnn2c(NCc3ccc[n+]([O-])c3)cc(N3CCCC[C@H]3CCO)nc12 [dinaciclib],anti-tumor effect in vivo (tumor growth),HCC-1954 cells,excellent anti-tumor effect
same,"anti-tumor effect in vitro (cell viability, SRB)",[1],excellent anti-tumor effect
same,resistance to the PARP1/2 inhibitor,[2],reversed
